Source: patent US20130071921A1

Biological target: Cynomolgous monkey Dkk-1 (cynomolgous monkey)
Assay: SPR BIAcore 3000, CM5 chip

binding: binds
B1: huMabJC18, fully humanized anti-Dkk-1 monoclonal antibody (antibody, human IgG2, kappa, V domains shown)
VH: EVQLVESGGGLVQPGGSLRLSCAASGFTFSSYAISWVRQAPGKGLEWVASVSGTGLGFQTYYPDSVKGRFTISRDNAKNSLYLQMNSLRAEDTAVYYCATSLENYAFDYWGQGTTVTVSS
VL: EIVLTQSPATLSLSPGERATLSCRASESVDDFGISFINWYQQKPGQAPRLLIYAGSKQGSGIPARFSGSGSGTDFTLTISSLEPEDFAVYYCQQLKEVPPTFGGGTKVEIKR

No constants are given. Whether binding was seen depends on the method and setting. Binding calls can cover weak binding; strength is not graded here.
